Laboratory results from paper doi:10.1101/2020.04.16.001255.
Results are given in words; binding and its absence hold for the method and conditions named. In cells and extracts the contact can be indirect. Some entries that bind do so weakly or less than the wild type.

Experiments:
[1] = target: TIP60-HA (UniProt Q92993); experiment: co-IP
[2] = target: p53-EGFP (UniProt P04637); experiment: co-IP

Row | binding [1] | binding [2] | Substance
1 | binds |  | p53-EGFP (from UniProt P04637 1-393)
2 |  | binds | TIP60-HA (from UniProt Q92993 1-513)
